System: histone deacetylase (HDAC)
Assay: HDAC inhibition screening assay using an aminocoumarin derivative of an omega-acetylated lysine as substrate
Format: biochemical
Settings: compound concentration 10 nM
Method: To measure the inhibitory properties of the compounds of the invention, a screening assay was performed using an aminocoumarin derivative of an omega-acetylated lysine as substrate for the enzmye. This assay has been described in detail in the literature (Hoffmann, K., et al., Nucleic Acids Res. 27 (1999)2057-2058). Using the protocol described therein, there was measured the inhibitory effect of the compounds at a concentration of 10 nM.

Inhibitory effect at 10 nM in %: 42%
Compound: O=C(CCCCCCC(=O)Nc1ccccc1)NO [suberanilohydroxamic acid (SAHA), suberanilohydroxamic acid, reference compound]

— patent US6512123B2, “Tricyclic alkylhydroxamate derivatives” (Hoffmann-La Roche Inc., priority 2001, dated 2003)
